# Results taken from publication PMC3618516, “A Systematic Screen of FDA-Approved Drugs for Inhibitors of Biological Threat Agents” (PLoS ONE, 2013).
# System: Bacillus anthracis
# Experiment: microbe, parasite or virus in culture
# Assay type: cell-based
# Settings: J774.A1, 15 h, read-out: Bacillus anthracis ICR (% protection)
structure (smiles),measurement,value
CCC[C@@H]1C[C@@H](C(=O)N[C@@H]([C@H]2O[C@H](SC)[C@H](O)[C@@H](O)[C@H]2O)[C@H](C)Cl)N(C)C1 [Clindamycin],inhibition at 50 µM,92%
